Measured data: PubChem BioAssay AID1259424 (University of Nebraska Medical Center, 2018)
Shown is an unselected part of about 14,000 reagents. 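Higher correlation or smaller distance means closer resemblance to KSR1 loss; control wells, including KSR1 knockdowns, recur on many plates.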 Some reagents were tested in more than one well and are listed for each. Further read-outs or replicates are left out here. Not stated in the record: the time to read-out.

- Purpose: 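Find knockdowns that reproduce the expression shifts seen after KSR1 loss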 (primary screen)
- System: human HCT116 colon cancer cells
- Knock-down reagent: siRNA pool against human genes, 50 nM
- Read-out: 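Six signature mRNAs by branched-DNA multiplex assay, scaled to two housekeeping genes and non-targeting median, log2; matched to mean KSR1 knockdown profile by Pearson correlation and euclidean distance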
- Direction: mean correlation with KSR1 profile: higher = expression change more like KSR1 knockdown; mean distance from KSR1 profile: higher = expression change less like KSR1 knockdown

no.	target	PubChem SID	mean correlation with KSR1 profile	mean distance from KSR1 profile
1	APBB1 (amyloid beta precursor protein binding family B member 1)	SID363992455	-0.272	2.6
2	TCTN3 (tectonic family member 3)	SID363999612	-0.42	1.85
3	ANKRD12 (ankyrin repeat domain 12)	SID363999363	-0.203	1.23
4	NAP1L2 (nucleosome assembly protein 1 like 2)	SID364002253	0.253	0.978
5	RGN (regucalcin)	SID363995645	-0.646	2
6	TFF1 (trefoil factor 1)	SID363994354	-0.527	2.93
7	DMRT1 (doublesex and mab-3 related transcription factor 1)	SID364002242	-0.289	1.9
8	INSIG1 (insulin induced gene 1)	SID363996442	-0.124	2.13
9	PCDHA8 (protocadherin alpha 8)	SID364001238	0.175	1.44
10	RBM14 (RNA binding motif protein 14)	SID363997148	-0.759	2.67
11	RBM14 (RNA binding motif protein 14)	SID364004256	0.578	3.27
12	APOD (apolipoprotein D)	SID363992872	0.44	1.13
13	HIPK4 (homeodomain interacting protein kinase 4)	SID364004625	0.319	2.2
14	TMPRSS5 (transmembrane serine protease 5)	SID364003424	0.254	1.84
15	COL25A1 (collagen type XXV alpha 1 chain)	SID364004030	0.428	2.15
16	KDM4B (lysine demethylase 4B)	SID363999254	-0.491	2.99
17	PTER (phosphotriesterase related)	SID364003400	-0.42	2.01
18	MRPL33 (mitochondrial ribosomal protein L33)	SID364004663	-0.641	1.45
19	FAM178B (family with sequence similarity 178 member B)	SID364000144	0.621	1.5
20	SLC50A1	SID364001218	0.218	2.01
21	PARD3B (par-3 family cell polarity regulator beta)	SID364004724	0.234	1.26
22	DACH1 (dachshund family transcription factor 1)	SID363995376	0.362	1.85
23	CHIT1 (chitinase 1)	SID363994564	0.422	4.82
24	ACKR1 (atypical chemokine receptor 1 (Duffy blood group))	SID363993246	0.452	1.61
25	NFX1 (nuclear transcription factor, X-box binding 1)	SID363993676	0.419	2.93
26	MOGAT2 (monoacylglycerol O-acyltransferase 2)	SID364003247	-0.0925	2.31
27	MRPL43 (mitochondrial ribosomal protein L43)	SID364003771	0.528	1.48
28	BEST2 (bestrophin 2)	SID364000445	0.0375	1.09
29	TOLLIP (toll interacting protein)	SID364001327	-0.28	1.85
30	TOLLIP (toll interacting protein)	SID364001327	-0.492	2.66
31	CCNJL (cyclin J like)	SID364002874	-0.488	3.89
32	DNAI4 (dynein axonemal intermediate chain 4)	SID364003038	0.704	1.75
33	ANGPTL3 (angiopoietin like 3)	SID363998903	-0.535	1.23
34	ASAP3 (ArfGAP with SH3 domain, ankyrin repeat and PH domain 3)	SID364000459	-0.19	1.99
35	SPNS1 (SPNS lysolipid transporter 1, lysophospholipid)	SID364003757	0.814	1.4
36	GNA13 (G protein subunit alpha 13)	SID363997363	0.692	3.7
37	HAT1 (histone acetyltransferase 1)	SID363994717	0.0753	1.64
38	GAS1 (growth arrest specific 1)	SID363993258	0.467	2.14
39	TGM5 (transglutaminase 5)	SID363995243	0.143	1.8
40	CTSB (cathepsin B)	SID363993121	0.168	2.09
41	GNB5 (G protein subunit beta 5)	SID363997369	-0.337	5.61
42	COL1A1 (collagen type I alpha 1 chain)	SID363991425	-0.626	2.5
43	FKRP (fukutin related protein)	SID364002777	-0.247	2.32
44	EIF3H (eukaryotic translation initiation factor 3 subunit H)	SID363994823	0.269	1.26
45	MCM7 (minichromosome maintenance complex component 7)	SID363996785	0.356	1.03
46	SLC31A2	SID363993073	-0.308	2.38
47	ABHD3 (abhydrolase domain containing 3, phospholipase)	SID364004551	0.241	2.61
48	USP40 (ubiquitin specific peptidase 40)	SID364000886	-0.324	5.19
49	PBXIP1 (PBX homeobox interacting protein 1)	SID364001722	-0.622	2.92
50	DMRTC1 (DMRT like family C1)	SID364004300	-0.667	2.8
51	RNF31 (ring finger protein 31)	SID364000697	-0.551	0.959
52	PRKAR2B	SID363993894	0.337	2.83
53	OASL (2'-5'-oligoadenylate synthetase like)	SID363994800	-0.0245	1.75
54	ASCL3 (achaete-scute family bHLH transcription factor 3)	SID364001749	-0.111	3.18
55	HUNK (hormonally up-regulated Neu-associated kinase)	SID363998958	0.58	1.97
56	RHBDF1 (rhomboid 5 homolog 1)	SID364002437	0.163	1.68
57	ACVR1 (activin A receptor type 1)	SID363992402	-0.214	2.9
58	IL22 (interleukin 22)	SID364001723	0.379	1.26
59	GOLGA3 (golgin A3)	SID363996764	-0.242	1.69
60	MMP7 (matrix metallopeptidase 7)	SID363993601	0.554	1.61
61	L1CAM (L1 cell adhesion molecule)	SID363991756	0.325	2.09
62	CYFIP2 (cytoplasmic FMR1 interacting protein 2)	SID363998799	-0.621	1.84
63	ITGA4 (integrin subunit alpha 4)	SID363992171	0.35	1.35

6 consecutive reagents already listed, for reference:
no.	target	PubChem SID	mean correlation with KSR1 profile	mean distance from KSR1 profile
29	TOLLIP (toll interacting protein)	SID364001327	-0.28	1.85
30	TOLLIP (toll interacting protein)	SID364001327	-0.492	2.66
31	CCNJL (cyclin J like)	SID364002874	-0.488	3.89
32	DNAI4 (dynein axonemal intermediate chain 4)	SID364003038	0.704	1.75
33	ANGPTL3 (angiopoietin like 3)	SID363998903	-0.535	1.23
34	ASAP3 (ArfGAP with SH3 domain, ankyrin repeat and PH domain 3)	SID364000459	-0.19	1.99
